Measured values from PubChem BioAssay AID1259415 (National Center for Advancing Translational Sciences (NCATS), 2018).
Among all 410,000 compounds or so, about 18,000 (4.4%) were called active. The shares of active, inactive and inconclusive entries below differ from those in the screen. Cut-off read from the data, not from the text of the source: active = activity change below about -60%; inconclusive = no clear call, values can overlap the other calls; inactive = above about -39%.

Assay: qHTS Assay for inhibitors of the human cytomegalovirus (HCMV)
Details: HFF cells, HCMV-luciferase reporter, 72 h; at 57.5 µM; active compounds read low
In short: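 Steps: HFFs plated, 16 h 37C; compounds added; HCMV-luciferase added to MOI 1 PFU/cell; 72 h 37C; OneGlo reagent, 5 min room temperature; luminescence read, normalized to controls.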
% is set by controls: 0 for no effect and ±100 for the full control effect.

SMILES	activity change, negative = inhibition
O=C(Nc1ccc(Cl)c(Cl)c1)Nc1nc(-c2ccccc2)cs1	inconclusive: -53.9%
O=C(CN1CCN(C(=O)c2cccc(S(=O)(=O)N3CCCC3)c2)CC1)Nc1ccc(F)cc1	inconclusive: -54.6%
CCN1CCN(c2ncnc3ccc(Br)cc23)CC1	active: -66.6%
CCOC(=O)c1sc(=S)n(CC)c1NC(=O)c1ccccc1	inactive: 41.6%
COc1ccc(-n2nnnc2C2(C)CCC(=O)N2Cc2ccccc2)cc1 (stereo not drawn)	inconclusive: -48.7%
COc1ccc(S(=O)(=O)N2CCCCCC2)cc1C(=O)N(C)Cc1cccs1	inconclusive: -41.3%
Nc1ncnc2c(C3OC(CO)C(O)C3O)c[nH]c12 (stereo not drawn)	active: -97.5%
CC(=O)c1cccc(NC(=O)c2cccc3c(-c4cccnc4)coc23)c1	inconclusive: -46.5%
CC(C)Cn1c(SC(C)C(=O)Nc2ccc(N3CCOCC3)cc2)nc2ccccc21 (stereo not drawn)	inconclusive: -58.6%
CCOC(=O)C(Sc1ncn[nH]1)c1ccccc1 (stereo not drawn)	inconclusive: -45.4%
CC(=O)N1CCCN(Cc2cn(-c3cc(C)ccc3C)nc2-c2ccccc2)CC1	inactive: 9.48%
OCc1cc(CO)c(O)c(CCc2ccccc2)n1	inactive: 10.4%
O=c1c(Cl)c(Cl)cnn1Cc1ccc(F)cc1	active: -99%
Cc1ccc(NS(=O)(=O)c2cc(Br)cc3c2N(C(=O)C2CC2)CC3)cc1C	active: -75.2%
CCOc1ccc(Nc2nc(N)c3ccccc3n2)cc1	inactive: -2.27%
CCCS(=O)(=O)c1c(Nc2ccccc2C)sc(C(=O)c2ccccc2)c1N	inactive: 16.8%
COc1ccc(Nc2nc(NCCCN3CCOCC3)nc(N)c2[N+](=O)[O-])cc1	inconclusive: -48.1%
COC(=O)c1ccc(Cn2nnc3sc4c(c3c2=O)CCC(C)C4)cc1 (stereo not drawn)	inactive: 58.6%
CSc1cccc(NC(=S)N(CCN(C)C)C(C)c2ccncc2)c1 (stereo not drawn)	inconclusive: -54.1%
CC(=O)Nc1ccc(S(=O)(=O)N(C)CC(=O)NC2=NCCS2)cc1	inconclusive: -56.5%
O=c1cnnc(N/N=C/C2CC=CCC2)[nH]1 (stereo not drawn)	inactive: -39.3%
CCc1c(C)nc2cc(-c3cc(OC)cc(OC)c3)nn2c1N1CCCC1	inconclusive: -56.2%

SMILES	activity change, negative = inhibition
CCCCC12CN3CCN(CC(C3)/C1=N\NC(=O)Nc1ccccc1)C2	inconclusive: -48%
COc1cccc(CNC(=O)C2Cc3cc(S(=O)(=O)N4CCCC4)ccc3N2C(C)=O)c1OC (stereo not drawn)	inconclusive: -43.6%
CCN(CC)c1c([N+](=O)[O-])c(=O)n(CC)c2ccccc12	inactive: -5.27%
Cc1ccc(NC(=O)Nc2ccon2)cc1Cl	inconclusive: -47.4%
CCc1nnc(NC(=O)c2ccc3c(=O)n4c(nc3c2)CCC4)s1	inactive: 99.4%
CCN(CC(=O)Nc1ccccc1OC)C(=O)c1cc(-c2ccccc2)nn1-c1ccccc1	inconclusive: -41.9%
O=CN1Cc2nc3ccccc3n2-c2cc(Br)ccc21	inconclusive: -57.2%
COc1ccccc1NC(=O)C(C)NS(=O)(=O)c1ccc(Cl)cc1 (stereo not drawn)	inconclusive: -40.1%
CC(=O)Nc1cccc(C(=O)NC2CCCc3c2cnn3-c2ccc(C(C)(C)C)cc2)c1 (stereo not drawn)	inconclusive: -57.3%
CC1C(=O)N(Cc2cn(CCC3OCCCO3)nn2)CCS(=O)(=O)N1Cc1ccc(-c2ccc(Cl)cc2)cc1 (stereo not drawn)	inconclusive: -47.5%
COc1cc(CNCc2cccnc2)ccc1OCc1ccccc1	inactive: -39%
COc1ccc([N+](=O)[O-])cc1COc1cc(C)cc2oc(=O)cc(-c3ccccc3)c12	inconclusive: -50.2%
CC1CCCCC12NC(=O)N(CC(=O)OCC(=O)NC(=O)c1ccccc1)C2=O (stereo not drawn)	inactive: 0%
Cc1ccccc1N1C(=O)C(Oc2ccc(Cl)cc2)C1CNC(C)(C)C (stereo not drawn)	inconclusive: -46.1%
CCOC(=O)c1cc(OC)c2cccc(CN3CCCC(C)(C(=O)NCCOC)C3)c2c1 (stereo not drawn)	inactive: 136%
O=C(Cn1c(=O)n(-c2cccc(Cl)c2)c(=O)c2sc3ccccc3c21)N1CCCC1	active: -81%
CCOC(=O)C1=C(C)NC2=C(C(=O)CCC2)C1c1cn(Cc2ccc(Cl)cc2Cl)nc1-c1ccccc1 (stereo not drawn)	active: -90%
CC1(C(=O)NNC(=O)c2cccc([N+](=O)[O-])c2)CC1Br (stereo not drawn)	inconclusive: -40.5%
COCC(=O)N(Cc1cc2ccc(C)c(C)c2n2nnnc12)C1CCCC1	inactive: 24.5%
CCOC(=O)CN(C(=O)c1ccccc1[N+](=O)[O-])C(C)(C)C	inconclusive: -42.7%
CCN1CCN(S(=O)(=O)c2ccc(Cl)c(C(=O)N(C)C(c3ccccc3)c3ccccc3)c2)CC1	inconclusive: -54.3%

For reference, part of the list above.
SMILES	activity change, negative = inhibition
COc1cccc(CNC(=O)C2Cc3cc(S(=O)(=O)N4CCCC4)ccc3N2C(C)=O)c1OC (stereo not drawn)	inconclusive: -43.6%
CCN(CC)c1c([N+](=O)[O-])c(=O)n(CC)c2ccccc12	inactive: -5.27%
